Reference: US20220378794A1 (Sinopia Biosciences, Inc., priority 2019, published 2022)
At least one compound was matched to its structure with a doubt left.

Test system: phencyclidine induced murine model of schizophrenia
Conditions: clozapine 2.5 mg/kg IP, positive control, after PCP 7.5 mg/kg IP

CN1CCN(C2=Nc3cc(Cl)ccc3Nc3ccccc32)CC1 [clozapine]
percentage of spontaneous alternations in Y-maze: consistent
